# Values quoted from earlier work in patent publication US11191719B2, “Controlled absorption water-soluble pharmaceutically active organic compound formulation for once-daily administration” (STI Pharma, LLC, priority 2011, dated 2021).
structure (smiles),measurement,setting,value
"COc1ccc2cc([C@H](C)C(=O)O)ccc2c1 [naproxen, (S)-6-methoxy-methyl-2-naphthaleneacetic acid]",plasma naproxen concentration required for anti-inflammatory or analgesic effects,,30 to 90 µg/mL
same,plasma naproxen levels at which pain reduction occurred,patients with rheumatoid arthritis,above 50 μg/mL
same,plasma naproxen levels reported to reduce post partum pain,post partum pain,30 to 70 µg/mL
